Results taken from PubChem BioAssay AID624297 (National Center for Advancing Translational Sciences (NCATS), 2012).
The campaign covered roughly 340,000 compounds. About 6,200 (1.8%) were called active. Inconclusive means that the source gave no clear call. Such entries were picked first, then a sample of the others. The call rests on the fitted dose curve; in most records, active means well fitted activation curve with a large enough effect; inconclusive means small, poorly fitted or top-dose-only effect; inactive means no such curve, though single readings can be large or run the other way. Where the call is inconclusive, the potency comes from a doubtful curve fit.

assay: A quantitative high throughput screen for small molecules that induce DNA re-replication in SW480 colon adenocarcinoma cells.; further: nearly all actives have a fitted effect of over 55% in size; on re-replication activation: % of control where 0% means no effect; conditions: Hoechst DNA content imaging, 48 h; re-replication activation: at 46.1 µM (top of the series) unless noted
Outline: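 Per well, 250 cells were exposed to pinned compound for 48 hr. Nuclear DNA was visualised with Hoechst (40 min, 37 C) and total object intensity recorded by fluorescence scanning.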
Potency means the concentration at half of the fitted maximal effect.

Structure (SMILES) | Potency | re-replication activation
COc1ccc(/C=C/c2nc(S(=O)(=O)c3ccccc3)c(N(C)C)o2)cc1 | inconclusive: 18.4 µM [activator, single point] | –
COc1ccc(C(=O)NNC(=S)NC(=O)/C=C/c2cccs2)cc1 | inconclusive: 1.16 µM [activator, full curve, poor fit] | –
COc1ccccc1NC(=S)NCCc1c[nH]c2ccccc12 | inconclusive: 23.1 µM [activator, single point] | –
CCOc1ccc(C2C([N+](=O)[O-])=C(C)N(C)C(=O)N2C)cc1OC (centres undefined) | inconclusive: 29.1 µM [activator, single point] | –
Cn1c(=O)oc2cc(S(=O)(=O)NCCCN3CCCC3=O)ccc21 | inconclusive: 29.1 µM [activator, single point] | –
S=C(NCCc1ccccc1)NC1CCC(NC(=S)NCCc2ccccc2)CC1 (centres undefined) | inactive | –
COc1cc(CN2CCN(Cc3c[nH]c4ccccc34)CC2CCO)cc(OC)c1 (centres undefined) | inactive | –
CCc1ccc(C2c3[nH]c4ccccc4c3CCN2C(=O)c2cc[n+]([O-])cc2)cc1 (centres undefined) | inconclusive: 29.1 µM [activator, single point] | –
Cc1ccc(S(=O)(=O)Nc2ccc(C(OC(=O)c3ccccc3[N+](=O)[O-])(C(F)(F)F)C(F)(F)F)cc2)cc1 | inconclusive: 16.4 µM [activator, partial curve] | –
COc1ccc(C2CCCCCN2C(=O)C2CCN(S(=O)(=O)c3cccc(C(C)=O)c3)CC2)cc1 (centres undefined) | – | inconclusive: 44.1% [activator]
CC(NCc1ccc2c(c1)OCO2)C(=O)NC1CCCCC1 (centres undefined) | inconclusive: 16.4 µM [activator, single point] | –
CCCC(=O)C1=C(O)C(c2cccc(Oc3ccccc3)c2)CCC1=O (centres undefined) | inconclusive: 29.1 µM [activator, partial curve, poor fit] | –
CCOC(=O)c1ccc(NC(=O)NCc2ccccn2)cc1 | inactive | –
Cc1ccc(S(=O)(=O)CCC(=O)OCC(=O)c2ccc(F)cc2)cc1 | inactive | –
O=S(=O)(c1ccc(F)cc1)N1CCN(C(=S)NCC2CCCO2)CC1 (centres undefined) | inconclusive: 32.6 µM [activator, partial curve, poor fit] | –
S=C(CN1CCCC1=S)NCCc1ccccc1 | inactive | –
Cc1c(NC(=O)Nc2ccc([N+](=O)[O-])cc2)c(=O)n(-c2ccccc2)n1C | inconclusive: 18.4 µM [activator, single point] | –
COc1ccc(/C(C)=N\Nc2nc(-c3ccccc3)cc(=O)[nH]2)cc1 | inconclusive: 29.1 µM [activator, partial curve, poor fit] | –
OC1CCCN(c2c3c(nc4cc(-c5cccc(Cl)c5)nn24)CCC3)C1 (centres undefined) | inactive | –
COc1ccc(NC(=O)Cn2nnc(-c3ccccc3NC(=O)c3ccco3)n2)cc1 | inconclusive: 5.17 µM [activator, full curve, poor fit] | –
CC12CCC(=O)N1C(C(=O)NNC(=O)c1ccccc1F)CS2 (centres undefined) | inconclusive: 1.46 µM [activator, full curve, poor fit] | –
O=C(Cc1ccccc1[N+](=O)[O-])N1CCN(c2ccc(F)cc2)CC1 | active: 11.6 µM | –

Some values from the entries so far:
Under Potency, CCCC(=O)C1=C(O)C(c2cccc(Oc3ccccc3)c2)CCC1=O (centres undefined) shows inconclusive: 29.1 µM [activator, partial curve, poor fit]
Under Potency, S=C(CN1CCCC1=S)NCCc1ccccc1 shows inactive

(more compounds)

Structure (SMILES) | Potency | re-replication activation
CCCOc1ccc(-c2c(C(=O)N/N=C(\C)c3cccs3)nnn2-c2nonc2N)cc1 | inconclusive: 3.66 µM [activator, single point] | –
CCOc1ccc(N2C(=O)S/C(=C\c3ccc(O)c(OC)c3)C2=O)cc1 | inconclusive: 29.1 µM [activator, single point] | –
COc1cccc(CN(C(=O)/C=C/c2ccc(Cl)cc2)C2CCS(=O)(=O)C2)c1 (centres undefined) | inactive | –
COc1ccc(NC(=O)c2ccccc2)c([N+](=O)[O-])c1 | inconclusive: 29.1 µM [activator, single point] | –
COc1cc(/C=N/Nc2nc(=O)[nH]nc2C)ccc1O | active: 14.6 µM | –
O=C(O)c1cc(-c2ccc3c(c2)OCO3)nc2ccc(Cl)cc12 | inconclusive: 29.1 µM [activator, single point] | –
CCC1(c2ccccc2)C(=O)N=C(N)N(C#N)C1=O (centres undefined) | inactive | –
CCOC(=O)c1ccc(N2C=C(C(=O)OC)C(c3cccc(O)c3)C(C(=O)OC)=C2)cc1 | inconclusive: 32.6 µM [activator, single point] | –
CSc1ccccc1OCc1cc(C(=O)N(C)Cc2ccncn2)no1 | inactive | –
CCOC(=O)c1[nH]c(C)c(C(=O)N2CCCC(Nc3ccc(C)c(C)c3)C2)c1C (centres undefined) | inconclusive: 3.26 µM [activator, single point] | –
Nc1c(C(=O)Nc2ccccc2)sc2nc3c(c(-c4ccco4)c12)CCCC3 | inconclusive: 10.3 µM [activator, partial curve] | –
Cc1cccc(OCc2nc(-c3ccccn3)n[nH]2)c1 | inconclusive: 18.4 µM [activator, partial curve, poor fit] | –
CCN(CC)c1ccc(C(=O)NNC(=O)CCl)cc1 | inconclusive: 29.1 µM [activator, single point] | –
CCc1cc(C(=O)NNC(=S)Nc2cccc(C)c2)cs1 | inactive | –
O=S(=O)(NCc1ccc2c(c1)OCO2)c1cccc(S(=O)(=O)N2CCOCC2)c1 | inactive | –
COc1ccc(NC(=O)c2ccccc2NC(=O)CSc2ccc(C)cc2)cc1 | inconclusive: 29.1 µM [activator, single point] | –
Cc1ccc(S(=O)(=O)NC2CC2)cc1[N+](=O)[O-] | inconclusive: 29.1 µM [activator, single point] | –
Cc1cc(Cl)c2oc(C(=O)N(C)Cc3ccon3)c(C)c2c1 | inactive | –
O=[N+]([O-])c1cc(-c2ccccc2)cc([N+](=O)[O-])c1O | inactive | –
O=C1C=CC2(C=C1)O[C@H](Cc1ccccc1)[C@@H](Cc1ccccc1)O2 | active: 0.92 µM | –
O=C(NN1CCOCC1)c1cnn2c(C(F)F)cc(-c3ccccc3)nc12 | inconclusive: 10.3 µM [activator, single point] | –
O=C(NC1(c2ccccc2)CC1)C1CCC(=O)N(Cc2ccc(Cl)cc2)C1 (centres undefined) | inconclusive: 0.92 µM [activator, full curve, poor fit] | –
